According to patent publication US6759236B1, “Methods to enhance and confine expression of genes” (Research Development Foundation, priority 1998, dated 2004):
At least one compound was matched to its structure with a doubt left.

System: H358 lung carcinoma cell line
Assay: Heat inducible, tetracycline feed-forward amplification of p53 expression (p53 immunostaining)
Assay type: cell-based
Conditions: 0.01 μg/ml, in 10 hours, HSPp feed-forward system
Protocol: Six hours after heat shock, transfected cells were treated with different doses of doxycycline. At various time points after the addition of doxycycline, the cells were stained with a p53 antibody. For each point, the digital images of fifty immunostained cells were captured using a Nikon microscope. […] The plasmid “HSP-tetp-TET-ON” was constructed by replacing the CMV promoter in ptet-on (Clontech) with 300 bp of the human heat shock protein promoter and the tetp promoter. H358, a non-small cell lung carcinoma cell line with a homozygous deletion of p53, was grown in RPMI+10% fetal calf serum. 10^7 exponentially growing cells were cotransfected with 50 μg of “ptet-splice p53 wt” and 10 μg of “HSP-tetp-TET-ON” by electroporation using a BRL cell-Porator at 1180 μF and 240 V in 0.8 ml RPMI+6 mM glucose. Transfected cells were plated out at 25% confluence for 36 hours and then half of them were heat-shocked at 45° C. for twenty minutes. Six hours after heat shock, cells were treated with different doses of doxycycline. […] The amount of protein expressed in each cell is proportional to the intensity of staining which was expressed as I=1/T, where T is a measure of the transmitted light/unit area.

CN(C)[C@@H]1C(O)=C(C(N)=O)C(=O)[C@@]2(O)C(O)=C3C(=O)c4c(O)cccc4[C@@](C)(O)[C@H]3[C@H](O)[C@@H]12 [oxytetracycline]
increase of p53 expression: nine-fold
